Measurements reported in patent publication US20210205403A1.
Results are given in words; binding and its absence hold for the method and conditions named. Some entries that bind do so weakly or less than the wild type.

By UniProt entry, the sequences of proteins in these tests, tags left out. Where a name states a change or a piece, a line headed by the entry shows the natural chain unless it says otherwise. Chains listed by the source or under a name are the forms on record and can include a tag or linker.
UniProt Q00987: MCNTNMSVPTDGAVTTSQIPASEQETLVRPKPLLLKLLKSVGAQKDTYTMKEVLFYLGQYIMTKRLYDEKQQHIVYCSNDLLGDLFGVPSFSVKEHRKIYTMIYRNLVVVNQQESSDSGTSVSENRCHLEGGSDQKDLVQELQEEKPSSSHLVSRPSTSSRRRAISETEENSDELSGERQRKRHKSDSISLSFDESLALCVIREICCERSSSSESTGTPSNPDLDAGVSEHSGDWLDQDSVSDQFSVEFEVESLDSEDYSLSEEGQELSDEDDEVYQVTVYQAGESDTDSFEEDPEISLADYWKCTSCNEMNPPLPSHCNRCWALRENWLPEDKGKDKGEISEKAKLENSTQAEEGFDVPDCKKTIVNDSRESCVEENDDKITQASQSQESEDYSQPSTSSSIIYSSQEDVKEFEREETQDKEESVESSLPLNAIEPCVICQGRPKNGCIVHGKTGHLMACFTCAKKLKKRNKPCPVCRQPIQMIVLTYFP
Full length HDM-2 with the sequence Cys-Ile-Leu-Lys (CAAX sequence) (Q00987, form named): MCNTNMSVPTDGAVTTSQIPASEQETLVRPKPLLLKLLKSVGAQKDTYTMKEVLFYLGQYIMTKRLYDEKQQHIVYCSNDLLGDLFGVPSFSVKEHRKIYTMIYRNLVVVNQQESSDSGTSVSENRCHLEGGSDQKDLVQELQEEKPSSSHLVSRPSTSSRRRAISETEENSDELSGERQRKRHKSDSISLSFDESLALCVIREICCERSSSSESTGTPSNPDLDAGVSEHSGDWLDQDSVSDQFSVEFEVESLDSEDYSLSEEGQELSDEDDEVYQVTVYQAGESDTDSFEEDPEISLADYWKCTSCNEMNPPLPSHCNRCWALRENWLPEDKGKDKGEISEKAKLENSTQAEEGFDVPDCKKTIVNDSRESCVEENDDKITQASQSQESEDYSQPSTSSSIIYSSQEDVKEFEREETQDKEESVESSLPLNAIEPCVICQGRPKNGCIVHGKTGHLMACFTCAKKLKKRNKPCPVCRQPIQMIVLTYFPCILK

Columns and labels:
[1] = biological target: HDM-2 in the cancer cell membrane (human) (UniProt Q00987); assay: confocal microscopy of PNC-27-treated cancer cells, FITC-DO-1 (green) and red-labelled anti-HDM-2 antibody; yellow overlap in the membrane
[2] = biological target: Full length HDM-2 with the sequence Cys-Ile-Leu-Lys (CAAX sequence) (human) (UniProt Q00987); assay: confocal microscopy of transfected MCF-10-2A cells
[3] = biological target: Full length HDM-2 with the sequence Cys-Ile-Leu-Lys (CAAX sequence) (human) (UniProt Q00987); assay: confocal microscopy of MCF-10-2A cells transfected with full-length HDM-2-CAAX, stained with DO-1 and anti-HDM-2 antibody plus fluorescent secondary antibodies

Measured: binding

PPLSQETFSDLWKLLKKWKMRRNQFWVKVQRG [PNC-27 (p53 aa12-26-MRP)]
binds: all assays above
